{
  "source": "PubChem BioAssay AID602441",
  "about": "(National Center for Advancing Translational Sciences (NCATS), 2012)",
  "note": "The whole screen tested about 1,300 compounds, of which fewer than 10 were called active. About 9% were inconclusive and are not listed. The call rests on the fitted dose curve; in most records, active means well fitted curve in the direction sought with a large enough effect; inconclusive means small, poorly fitted or top-dose-only effect, or another doubt; inactive means no such curve, though single readings can be large or run the other way. The list shows a part of the results. Potency means the concentration at half of the fitted maximal effect.",
  "data": [
    {"experiment": "qHTS for antagonists of the Thyroid Stimulation Hormone Receptor: Hit Validation in Parental Cell Line; on activity change, negative = inhibition: 0% is about no effect", "details": "parental HEK293 cells lacking TSHR, counter-screen; series mostly up to 56.9 µM; activity change, negative = inhibition: at the top concentration", "source_text": "The thyroid-stimulating hormone receptor (TSHR) is a member of the 7 trans-membrane-spanning receptor (7TMR) family of cell surface receptors. TSHR-mediated hyperthyroidism is important in thyroid pathology. The development of small molecule antagonists of TSHR may lead to therapeutic approaches for TSHR-mediated hyperthyroidism caused by constitutively activating mutations or stimulating auto-antibodies associated with Graves' disease. Graves' disease is the leading cause of hyperthyroidism and is caused by autoantibodies that stimulate TSHR (TsAbs) causing thyroid growth and unregulated overproduction of thyroid hormones and existing treatments have liabilities (agranulocytosis). In addition, TSHRs are known to be expressed in multiple extrathyroidal tissues including bone, brain, kidney, testis, fat and cells of the immune system but the role of the TSHR in these tissues is not clear. Therefore, TSHR antagonists/inverse agonists could be used as probes of extrathyroidal TSHR function. Finally, TSHR inverse agonists, which are a subclass of antagonists that inhibit agonist-independent (or basal or constitutive) TSHR signaling, could be used to inhibit TSH-independent signaling in patients with recurrent or metastatic thyroid cancer who are receiving thyroid hormone to suppress TSH.\nIn collaboration between scientist from the NCGC and the NIDDK, a miniaturized HTRF high-throughput screen was developed. It's a cell based assay, where an anti cAMP antibody contains a fluorescent cryptate tag (excitation 337 nm; emission 620 nm) and the acceptor is cAMP-d2 (excitation 620 nm; emission 665 nm). When antibody and cAMP-d2 interact and are excited by a 337 nm light, a FRET occurs resulting in emission at 665 nm. The assay is competition between cAMP-d2 and cAMP (from the cell lysate). The homogeneous protocol allows for one step dispense after stimulation that is automation friendly. This is a hit validation assay in a counterscreen using parental HEK 293 cells lines.\nNIH Chemical Genomics Center [NCGC]\nNIH Molecular Libraries Probe Centers Network [MLPCN]\nAssay Provider: Marvin Gershengorn, NIDDK\nAn anti cAMP antibody contains a fluorescent cryptate tag (excitation 337 nm; emission 620 nm) and the acceptor is cAMP-d2 (excitation 620 nm; emission 665 nm). When antibody and cAMP-d2 interact and are excited by a 337 nm light, a FRET occurs resulting in emission at 665 nm. The assay is competition between cAMP-d2 and cAMP (from the cell lysate). The homogeneous protocol allows for one step dispense after stimulation that is automation friendly. This assay uses parental HEK-EM 293 cells", "values": [
      {"smiles": "O=[N+]([O-])c1cc(S(=O)(=O)C(F)(F)F)ccc1Sc1nc2ccccc2s1", "activity change, negative = inhibition": "inactive: -6.57%"},
      {"smiles": "O=C(Nc1nc(-c2ccc(F)cc2)cs1)C1CCN(C(=O)c2ccc(F)cc2)CC1", "activity change, negative = inhibition": "inactive: -8.68%"},
      {"smiles": "CC(C)Oc1ccc(C(=O)Nc2ccc(Cl)c(S(=O)(=O)Nc3ccc(Cl)cc3)c2)cc1", "activity change, negative = inhibition": "inactive: 0.687%"},
      {"smiles": "Cc1ccccc1NC(=O)CCc1c(C)nn(-c2ccc(N3CCOCC3)nn2)c1C", "activity change, negative = inhibition": "inactive: 4.76%"},
      {"smiles": "COc1cc(/C=N/Nc2ccc(C(=O)O)cc2)ccc1O", "activity change, negative = inhibition": "inactive: -5.88%"},
      {"smiles": "COc1ccc(C(C(=O)NC(C)(C)C)N(CCc2ccccc2)C(=O)CCC(=O)Nc2cc(C)on2)cc1", "note": "(stereo not drawn)", "activity change, negative = inhibition": "inactive: 2.28%"},
      {"smiles": "CNc1c(NC(=O)c2ccc3c(c2)OCO3)c(=O)oc2ccccc12", "activity change, negative = inhibition": "inactive: 3.93%"},
      {"smiles": "Cc1ccccc1Oc1cc(-n2ncc(Cl)c(Cl)c2=O)ncn1", "activity change, negative = inhibition": "inactive: 7.91%"},
      {"smiles": "O=C(NC(=S)Nc1ccc(C(=O)N2CCOCC2)cc1)c1ccc([N+](=O)[O-])cc1", "activity change, negative = inhibition": "inactive: 2.72%"},
      {"smiles": "COc1ccc(CNC(=O)C2CCCN2C(=O)NCc2ccccc2)cc1", "note": "(stereo not drawn)", "activity change, negative = inhibition": "inactive: -3.03%"},
      {"smiles": "CCn1nc(C)c(CN2CCCC(CNS(=O)(=O)c3ccc(OC)cc3)C2)c1C", "note": "(stereo not drawn)", "activity change, negative = inhibition": "inactive: -4.08%"},
      {"smiles": "COc1cc(NC(=O)Cn2nc(C(F)(F)F)c(Br)c2C)cc([N+](=O)[O-])c1", "activity change, negative = inhibition": "inactive: -2.91%"},
      {"smiles": "Cc1cccc(NC(=S)NCC(C)CSc2ccc(Cl)cc2)c1", "note": "(stereo not drawn)", "activity change, negative = inhibition": "inactive: 1.48%"},
      {"smiles": "CCN(CC)c1ccc2nc3ccccc3[n+](CC)c2c1", "Potency": "active: 13.5 µM"},
      {"smiles": "O=C(NCC1CCCO1)c1cccc2c1C(=O)c1ccc(N3CCC(Cc4ccccc4)CC3)cc1S2(=O)=O", "note": "(stereo not drawn)", "activity change, negative = inhibition": "inactive: -10.6%"},
      {"smiles": "COc1ccc(S(=O)(=O)N2CCN(c3cccc(C)c3C)CC2)cc1", "activity change, negative = inhibition": "inactive: -1.34%"},
      {"smiles": "O=[N+]([O-])c1ccc(COc2cccc(CNc3ccc(F)cc3)c2)cc1", "activity change, negative = inhibition": "inactive: -0.275%"},
      {"smiles": "O=C(/C=C/c1ccc(Cl)cc1Cl)NCCSCc1ccccc1", "activity change, negative = inhibition": "inactive: -4.87%"},
      {"smiles": "CCOc1ccccc1NC(=O)CSc1nc2ccccc2c(=O)n1CC1CCCO1", "note": "(stereo not drawn)", "activity change, negative = inhibition": "inactive: 3.86%"},
      {"smiles": "COc1ccc(C2c3ccc(O)cc3Oc3ncn(Cc4ccco4)c(=N)c32)cc1", "note": "(stereo not drawn)", "activity change, negative = inhibition": "inactive: -0.978%"},
      {"smiles": "CCCN1C(=O)c2ccc(C(=O)Nc3cc(C)ccc3O)cc2C1=O", "activity change, negative = inhibition": "inactive: 0.657%"},
      {"smiles": "O=C(Nc1ccncc1)c1ccc(Cl)c(S(=O)(=O)N2CCc3ccccc32)c1", "activity change, negative = inhibition": "inactive: -4.42%"},
      {"smiles": "Cc1cccc(N(C(=O)c2nsc(Cl)c2Cl)C(C(=O)NC2CCCC2)c2ccc(O)cc2)c1C", "note": "(stereo not drawn)", "activity change, negative = inhibition": "inactive: -4.34%"},
      {"smiles": "Cc1ccc(Cl)cc1NC(=O)c1cc2ccccc2cc1O", "activity change, negative = inhibition": "inactive: -7.7%"},
      {"smiles": "Cc1cccc(CC(=O)NCC(=O)NCc2cc(=O)n(C)c(=O)n2C)c1", "activity change, negative = inhibition": "inactive: 7.15%"},
      {"smiles": "O=C(Nc1nc2c(s1)CCCC2)c1ccc2ncsc2c1", "activity change, negative = inhibition": "inactive: -5.44%"},
      {"smiles": "c1ccc(C(c2nnnn2Cc2ccco2)N2CCN(c3nc4ccccc4s3)CC2)cc1", "note": "(stereo not drawn)", "activity change, negative = inhibition": "inactive: -2.24%"},
      {"smiles": "CCCn1c(=O)c2[nH]c(C3CCCC3)nc2n(CCC)c1=O", "activity change, negative = inhibition": "inactive: -2.79%"}
    ]}
  ]
}
